Positions count from the first letter of the chain named.
Tested on: MDA-MB-231 cells
Assay: Tumour cell killing using antibody-Saporin conjugates (XTT/PMS viability)
Format: cell-based, human
Conditions: comparison referring to Table 4
Experimental: For generation of immunotoxin, the chimeric MAb was non-covalently coupled to a plant toxin Saporin using FabFc-ZAP human conjugate (4.5 nM final concentration) (Advanced Targeting Systems, Cat. no. IT-65). The effect of chAb-Saporin internalization on tumour cell viability was tested using Axl-positive tumour cell line MDA-MB-231 (human triple negative breast carcinoma). Eight hundred cells were seeded per well in 96-well plates in DMEM/F-12 media supplied with 10% FBS, L-glutamine (4 mM), streptomycin (5 μg/ml) and penicillin (5 U/ml) and allowed to attach for 16 hours. The cells were incubated with different dilutions of immunotoxin chAb-Saporin for 72 hrs. The viability of the cells was determined by performing an XTT/PMS assay using a CLARIOstar® microplate reader (BMG LABTECH)
Unconjugated Saporin and an isotype control antibody (human IgG1) coupled to Saporin (control SAP) were used as negative controls.
Tumour cell killing using antibody-Saporin conjugates performed as described in Example 20. A comparison of two variants of humanised 10G5 and YW327.6S2 was performed.

B1: H1L1: humanised 10G5 variant; presumably VH GH1 (SEQ ID NO: 1) with VL GL1 (SEQ ID NO: 3) (antibody, V domains shown)
VH: EVQLVQSGAGLVQPGGSVRLSCAASGYSFTDFYINWVRQAPGKGLEWIARIFPGGDNTYYNEKFKGRFTLSADTSSSTAYLQLNSLRAEDTAVYYCARRGLYYAMDYWGQGTLVTVSS
VL: DIQMTQSPSSLSASVGDRVTITCRSSQSLVHSNGIPYLHWYQQKPGKAPKLLIYRVSNRFSGVPSRFSGSGSGTDFTLTISSLQPEDFATYYCSQGTHVPPTFGQGTKVEIK
modifications: hu10G5 VH(GH1); hu10G5 VL(GL1)
  EC50 lower than that of the chimeric antibody: at least 35%

B2: H2L1: humanised variant of 10G5; presumably VH GH2 (SEQ ID NO: 2) with VL GL1 (SEQ ID NO: 3) (antibody, V domains shown)
VH: B1 VH with Q6E, A9G, V18L, I48V, S76K, L83M
VL: B1 VL
modifications: hu10G5 VH(GH2); hu10G5 VL(GL1)
  EC50 lower than that of the chimeric antibody: at least 50%

Source: US11732048B2, “Anti-axl antagonistic antibodies” (BERGEN TEKNOLOGIOVERFØRING AS, priority 2016, dated 2023)
